Data published in article PMC11852578, “Enhanced Site-Specific Fluorescent Labeling of Membrane Proteins Using Native Nanodiscs” (Biomolecules, 2025).
These are yes or no findings as the source states them, for the method shown. Some results given as binding are weak or reduced against the parent protein; the word gives no strength. Tags and fused reporters may be left off the sequences shown.

Biological target: KvAP wild type, archaeal voltage-gated potassium channel from Aeropyrum pernix, in DM detergent micelles (Aeropyrum pernix) (UniProt Q9YDF8)
Assay: SDS-PAGE; peak fraction of SEC of KvAP in DM micelles; Coomassie-stained gel; both purified

B1: KvAP wild type, archaeal voltage-gated potassium channel from Aeropyrum pernix, in DM detergent micelles (natural protein)
chain: GGRVRNIGDVMEHPLVELGVSYAALLSVIVVVVEYTMQLSGEYLVRLYLVDLILVIILWADYAYRAYKSGDPAGYVKKTLYEIPALVPAGLLALIEGHLAGLGLFRLVRLLRFLRILLIISRGSKFLSAIADAADKIRFYHLFGAVMLTVLYGAFAIYIVEYPDPNSSIKSVFDALWWAVVTATTVGYGDVVPATPIGKVIGIAVMLTGISALTLLIGTVSNMFQKILVGEPEPSCSPAKLAEMVSSMSEEEFEEFVRTLKNLRRLENSMK
notes: voltage-gated potassium channel KvAP, Aeropyrum pernix; native cysteine printed as C260; Labelling with AF647 maleimide failed in detergent, so the protein was unlabelled; also called wild-type KvAP; source: E. coli C43, pET21a-derived vector, membranes solubilised in DM, purified (Ni-NTA, SEC)
  binding: binds
